Values of other authors in US20130130241A1, “ANDROGEN RECEPTOR ISOFORMS AND METHODS” (Regents of the University of Minnesota, priority 2010, published 2013).
Some results were stated once for a whole list of compounds, not compound by compound.

Test system: patients with ADI prostate cancer
Settings: early-phase clinical trials; in roughly one-half of patients with ADI prostate cancer; cited from earlier work

| SMILES | initial serum PSA declines |
| --- | --- |
| CNC(=O)c1ccc(N2C(=S)N(c3ccc(C#N)c(C(F)(F)F)c3)C(=O)C2(C)C)cc1F [MDV3100] | at least 50% |
| CC(=O)O[C@H]1CC[C@@]2(C)C(=CC[C@@H]3[C@@H]2CC[C@]2(C)C(c4cccnc4)=CC[C@@H]32)C1 [abiraterone acetate] | at least 50% |
